This is one part of the list. Shown are side measurements of this screen, not its main read-out; they come without a call. The list favours compounds with an active or inconclusive main result.
Experiment: hepatocyte lipid droplet accumulation inhibitors, confirmation, imaging, AML12 mouse hepatocytes, single concentration, high-content (AID 463183);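 also: cells counted after overnight compound exposure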
Conditions: BODIPY lipid droplet imaging, measured here: cell count, cytotoxicity, at 5.2 µM, droplets induced with 100 µM oleic acid
COc1ccc(OC)c(NC(=O)Cc2coc3ccc4ccccc4c23)c1 gave a cell count of 1570 cells. Work on CCOc1ccc(C(=O)NCC(=O)NC(C)CCc2ccccc2)cc1OCC (centres undefined) yielded a cell count of 1530 cells. Molecule O=C(Cc1cccc2ccccc12)Nc1c(F)cccc1F has a cell count of 1640 cells. With CCOc1ccc(CCNC(=O)CN2CCN(Cc3ccc(F)cc3)C2=O)cc1OCC the cell count was 1580 cells. For CC(C)c1ccccc1-n1c(SCC(=O)c2ccc3c(c2)NC(=O)CO3)nc2ccccc2c1=O, the cell count was 1590 cells. In the case of CC(=O)C1=C(C)NC(SCSc2ccccc2)=C(C#N)C1c1cccnc1 (centres undefined), the cell count is reported as 1630 cells. CC(C)OC(=O)/C(=C/c1ccc2c(c1)c1ccccc1n2C)NC(=O)c1ccccc1 gave a cell count of 1670 cells. For COC(=O)c1ccc2c(c1)NC(=O)C(N(CC(C)C)CC(C)C)S2 (centres undefined), the cell count was 1610 cells. For Cc1ccc(NC(=O)CSc2nc3ccccc3nc2N2CCCC2)cc1, the cell count was 1540 cells. In the case of CCc1cc(SC#N)cc(C)c1NC(=O)CCl, the cell count is reported as 1390 cells. Molecule c1cc2c3c(cccc3c1)NC1(CCC3(CC1)Nc1cccc4cccc(c14)N3)N2 has a cell count of 1480 cells. Work on COc1ccc(NS(=O)(=O)c2ccc(NC(=S)NCC3CCCO3)cc2)cc1 (centres undefined) yielded a cell count of 1640 cells. Work on O=C(Cc1coc2ccc3ccccc3c12)NC1CCCc2ccccc21 (centres undefined) yielded a cell count of 1510 cells. Work on OC(COc1ccc2cc(Br)ccc2c1)Cn1ccnc1 (centres undefined) yielded a cell count of 1600 cells. With O=C(Nc1ccc([N+](=O)[O-])cn1)c1cc(-c2cccc(Br)c2)nc2ccccc12 the cell count was 1570 cells. CCOc1ccc(CCNC(=O)CSCc2ccc(C)cc2)cc1OCC gave a cell count of 1580 cells. COc1cccc(CNS(=O)(=O)c2ccc(S(=O)(=O)NC3CC3)cc2)c1 showed a cell count of 1610 cells. CCOc1ccc(CCNC(=O)CN2CCN(Cc3ccccc3C)C2=O)cc1OCC showed a cell count of 1470 cells. C=C(C)c1cccc(C(C)(C)NC(=O)Nc2ccccc2OCC)c1 showed a cell count of 1540 cells. CCCCNC(=O)c1ccc2c(c1)N(C)C(=O)c1ccccc1S2 gave a cell count of 1600 cells. Cc1ccc(Cn2nc(C)c(NC(=O)C3(C)CC3(Br)Br)c2C)cc1 (centres undefined) showed a cell count of 1480 cells. For CCN(Cc1ccccc1)C(=O)C1CCN(C(=O)Nc2ccccc2)CC1, the cell count was 1550 cells. In the case of CC(Sc1nnc(-c2ccccc2)c(-c2ccccc2)n1)C(=O)N1CCc2ccccc21 (centres undefined), the cell count is reported as 1610 cells. Work on CCOc1ccc(CCNC(=O)CSc2cc(=O)n(CC)c3ccccc23)cc1OCC yielded a cell count of 1610 cells. For CCc1nc2ccccc2c(C(=O)OCC(=O)NCc2ccc3c(c2)OCO3)c1C, the cell count was 1570 cells. Cc1ccccc1C(=O)NC1CCN(Cc2nnnn2C2CCCC2)CC1 gave a cell count of 1580 cells. Molecule COc1ccc(C(=O)OC(C)C(=O)NC(C)CCc2ccccc2)cc1OC (centres undefined) has a cell count of 1540 cells. In the case of N#CC(c1ccc(Cl)cc1)c1ccc2c(C(F)(F)F)cc(C(F)(F)F)nc2n1 (centres undefined), the cell count is reported as 934 cells. With COc1ccc(NC(=O)CN2C(=O)NC(c3ccccc3)(c3ccccc3)C2=O)cc1OC the cell count was 1640 cells. Work on c1ccc2c(c1)CCCC2C1=NCCN1 (centres undefined) yielded a cell count of 1620 cells. For COC(=O)c1ccccc1NC(=O)c1cccc(NC(=O)c2ccc(Br)o2)c1C, the cell count was 1580 cells. For CS(=O)(=O)N(CC(=O)Nc1ccc2c(c1)OCO2)Cc1ccccc1, the cell count was 1620 cells. For CCN1CCN(c2c(/C=C3\SC(=S)N(Cc4ccco4)C3=O)c(C)c(C#N)c(=O)n2C)CC1, the cell count was 1590 cells. With Cc1cc(OCC(=O)NC2CC2)c2c(C)cc(=O)oc2c1 the cell count was 1620 cells. For Cc1[nH]c2ccccc2c1/C=N/Nc1nc(Nc2ccc(F)cc2)nc(N2CCOCC2)n1, the cell count was 21 cells. O=C1C(NS(=O)(=O)c2cccs2)=C(N2CCN(c3cccc(Cl)c3)CC2)C(=O)c2ccccc21 showed a cell count of 1520 cells. Work on O=[N+]([O-])c1cc2c(c(CSc3nnc(Nc4ccccc4)s3)c1)OCOC2 yielded a cell count of 1660 cells. For CCSC(=O)N(CC)CC(=O)Nc1c(CC)cccc1CC, the cell count was 1670 cells. In the case of COc1ccc(C(=O)CSc2nnc(CC(=O)Nc3ccccc3OC)n2C)cc1, the cell count is reported as 1630 cells.

— PubChem BioAssay AID463183 (Sanford-Burnham Center for Chemical Genomics, 2010)
